These are yes or no findings as the source states them, for the method shown. In cells and extracts the contact can be indirect. These calls come from enrichment with a bait or labelling near it, and not all partners need be listed.
B1: Mcm7 (protein, UniProt J9VU53 1-788)
chain: MATNDAGASVMPVANVQINYEEESAKIEDFLERYVAGPRPRRNQDALPADDDAAAEDTSEDEDDLAEGMDGLNVQGARRTKFKYLRMLREVANRRREDIVIDLKDLKRHSNDLSLLHNIQNNTRRYIQLFSDVIDKIMPPPDNEVDYSSDVLDLIMQQRREMNAQVEAGERNADAGMFPPELMRRYNVYFRPLRSDDVLAVRAVRGAHLGKLITVRGIVTRVSEVKPLLIVNAYTCDSCGNEIFQEITQKHFAPLTVCPSDVCVRNQTKGQLHMQTRASRFRPFQEVKIQEMADQVPVGHIPRSMTIHLYGALTRSVNPGDVVHIGGIFIPTPYTGMRALRAGLLQDTFLEAMHVHQLKKQYHTMESTPEIQEAIADLKSDPALYARLANSIAPEIYGHEDVKKALLLLLVGGVTNSRKDGMKIRGDINVCLMGDPGVAKSQLLKYITKVAPRGVYTTGRGSSGVGLTAAVMRDPVTDEMVLEGGALVLADNGICCIDEFDKMEESDRTAIHEVMEQQTISISKAGITTTLNARTSILAAANPLYGRYNPKISPVENINLPAALLSRFDVLFLILDSPTREDDERLAQHVCFVHMHNTHPELDFEPVDPTLMRHYIAECRKIEPRVPQALSEYIVSSYVQMRKQQQEDEAEEKSHSYVSARTLLAVLRLSQALARLRHDDIVQQGDVDEALRLMDVSKASLYEHSQQRNGEDQTSTSKIFRIIKDMAQRAADEGDDEEMGELAMMDVRNRVIAKGFTEMQLMETILEYENMDVLMRTANGSRLQFVTV

Sequences of proteins named here, by UniProt entry; tags and fusion partners are left off. A change or cut given only in a name is not applied to a line headed by its entry.
UniProt J9VUF4: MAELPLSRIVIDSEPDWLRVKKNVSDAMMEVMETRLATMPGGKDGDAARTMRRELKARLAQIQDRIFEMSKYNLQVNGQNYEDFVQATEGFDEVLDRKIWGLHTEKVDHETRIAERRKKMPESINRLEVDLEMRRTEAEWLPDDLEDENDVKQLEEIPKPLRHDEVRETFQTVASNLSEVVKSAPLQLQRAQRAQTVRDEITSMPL
UniProt J9VX48: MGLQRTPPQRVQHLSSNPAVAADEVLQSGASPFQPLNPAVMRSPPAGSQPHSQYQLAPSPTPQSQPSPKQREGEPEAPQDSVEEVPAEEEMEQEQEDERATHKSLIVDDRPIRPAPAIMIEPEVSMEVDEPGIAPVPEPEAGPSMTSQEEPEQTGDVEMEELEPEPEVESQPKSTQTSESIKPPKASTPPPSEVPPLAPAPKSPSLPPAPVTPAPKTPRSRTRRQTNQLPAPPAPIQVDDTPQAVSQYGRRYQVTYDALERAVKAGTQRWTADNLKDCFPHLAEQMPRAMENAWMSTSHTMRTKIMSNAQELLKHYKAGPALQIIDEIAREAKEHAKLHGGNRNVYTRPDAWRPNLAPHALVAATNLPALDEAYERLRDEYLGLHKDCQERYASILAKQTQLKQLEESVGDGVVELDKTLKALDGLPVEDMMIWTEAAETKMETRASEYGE
UniProt J9VIH9: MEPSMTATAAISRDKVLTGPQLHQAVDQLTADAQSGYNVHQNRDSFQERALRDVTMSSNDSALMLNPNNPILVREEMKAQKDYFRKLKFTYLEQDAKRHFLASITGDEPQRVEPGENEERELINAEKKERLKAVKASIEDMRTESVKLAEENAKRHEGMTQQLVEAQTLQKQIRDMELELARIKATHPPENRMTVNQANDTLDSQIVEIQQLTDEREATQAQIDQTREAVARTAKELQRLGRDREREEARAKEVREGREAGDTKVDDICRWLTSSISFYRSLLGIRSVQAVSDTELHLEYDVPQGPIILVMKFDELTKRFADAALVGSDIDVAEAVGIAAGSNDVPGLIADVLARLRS
UniProt J9VGF6: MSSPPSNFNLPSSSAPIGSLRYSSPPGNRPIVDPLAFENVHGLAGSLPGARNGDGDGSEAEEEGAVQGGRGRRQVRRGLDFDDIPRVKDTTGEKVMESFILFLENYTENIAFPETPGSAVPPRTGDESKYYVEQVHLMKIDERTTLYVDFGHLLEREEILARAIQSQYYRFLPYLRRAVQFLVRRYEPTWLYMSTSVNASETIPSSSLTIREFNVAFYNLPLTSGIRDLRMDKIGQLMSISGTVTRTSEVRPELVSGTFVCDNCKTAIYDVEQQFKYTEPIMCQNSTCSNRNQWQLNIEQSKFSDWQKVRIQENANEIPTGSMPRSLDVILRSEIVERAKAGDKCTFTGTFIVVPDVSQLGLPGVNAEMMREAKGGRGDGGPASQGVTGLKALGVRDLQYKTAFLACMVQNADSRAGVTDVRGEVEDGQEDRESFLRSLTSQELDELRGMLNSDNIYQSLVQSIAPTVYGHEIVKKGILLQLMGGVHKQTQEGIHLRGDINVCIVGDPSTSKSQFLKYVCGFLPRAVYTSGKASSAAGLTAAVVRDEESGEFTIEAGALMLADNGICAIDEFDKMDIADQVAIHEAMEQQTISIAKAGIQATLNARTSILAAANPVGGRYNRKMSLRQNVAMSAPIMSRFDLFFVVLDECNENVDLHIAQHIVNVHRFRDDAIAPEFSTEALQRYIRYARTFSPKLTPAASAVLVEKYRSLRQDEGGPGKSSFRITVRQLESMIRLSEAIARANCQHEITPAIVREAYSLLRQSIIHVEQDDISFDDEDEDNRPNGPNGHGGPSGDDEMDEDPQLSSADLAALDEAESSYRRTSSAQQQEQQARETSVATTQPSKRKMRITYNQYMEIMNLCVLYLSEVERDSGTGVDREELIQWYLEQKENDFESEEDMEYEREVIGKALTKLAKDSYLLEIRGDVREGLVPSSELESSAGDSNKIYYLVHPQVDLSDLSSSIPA

Tests used:
[1] = molecular target: 3×FLAG-GFP-Bgi1^FL (C. neoformans) (UniProt J9VZK6); test: affinity purification with mass spectrometry; as a1 but 300 mM KCl throughout (BB300), the more stringent condition; FLAG-IP of Bgi1^FL
[2] = molecular target: 3×FLAG-GFP-Bgi1^FL (C. neoformans) (UniProt J9VZK6); test: affinity purification with mass spectrometry; FLAG-IP (anti-FLAG M2 on Dynabeads) of 3×FLAG-tagged baits from lysate of TBZ-treated C. neoformans cells, binding buffer BB150 (25 mM HEPES pH 8.0, 150 mM KCl, 0.1% NP-40), 4 °C, eluted with 3×FLAG peptide, nano LC–MS–MS
[3] = molecular target: 3×FLAG-GFP-Bgi1^FL (C. neoformans) (UniProt J9VZK6); test: as above; remark: listed apart in the source
[4] = molecular target: CENP-C^Mif2-3×FLAG (C. neoformans); test: as above
[5] = molecular target: Dsn1-3×FLAG (C. neoformans); test: as above
[6] = molecular target: Spc25-3×FLAG (C. neoformans); test: as above

Molecule	binding [1]	binding [2]	binding [3]	binding [4]	binding [5]	binding [6]
Nsl1 (CNAG_04300) (from UniProt J9VUF4)	binds	binds				
Nnf1 (CNAG_04479) (from UniProt J9VX48)	binds	binds				
Sos7 (CNAG_03715) (from UniProt J9VIH9)	binds	binds				
Mcm6 (from UniProt J9VGF6)	binds	binds				
B1	binds		binds	binds	binds	binds
